Results from article PMC4307741.
These are yes or no findings as the source states them, for the method shown. In cells and extracts the contact can be indirect. Some binding calls cover weakened binding; strength is not graded here.

Protein sequences, listed by entry. Tags and fused reporters are not part of them. Residues count along the entry.
UniProt Q9Y2J2: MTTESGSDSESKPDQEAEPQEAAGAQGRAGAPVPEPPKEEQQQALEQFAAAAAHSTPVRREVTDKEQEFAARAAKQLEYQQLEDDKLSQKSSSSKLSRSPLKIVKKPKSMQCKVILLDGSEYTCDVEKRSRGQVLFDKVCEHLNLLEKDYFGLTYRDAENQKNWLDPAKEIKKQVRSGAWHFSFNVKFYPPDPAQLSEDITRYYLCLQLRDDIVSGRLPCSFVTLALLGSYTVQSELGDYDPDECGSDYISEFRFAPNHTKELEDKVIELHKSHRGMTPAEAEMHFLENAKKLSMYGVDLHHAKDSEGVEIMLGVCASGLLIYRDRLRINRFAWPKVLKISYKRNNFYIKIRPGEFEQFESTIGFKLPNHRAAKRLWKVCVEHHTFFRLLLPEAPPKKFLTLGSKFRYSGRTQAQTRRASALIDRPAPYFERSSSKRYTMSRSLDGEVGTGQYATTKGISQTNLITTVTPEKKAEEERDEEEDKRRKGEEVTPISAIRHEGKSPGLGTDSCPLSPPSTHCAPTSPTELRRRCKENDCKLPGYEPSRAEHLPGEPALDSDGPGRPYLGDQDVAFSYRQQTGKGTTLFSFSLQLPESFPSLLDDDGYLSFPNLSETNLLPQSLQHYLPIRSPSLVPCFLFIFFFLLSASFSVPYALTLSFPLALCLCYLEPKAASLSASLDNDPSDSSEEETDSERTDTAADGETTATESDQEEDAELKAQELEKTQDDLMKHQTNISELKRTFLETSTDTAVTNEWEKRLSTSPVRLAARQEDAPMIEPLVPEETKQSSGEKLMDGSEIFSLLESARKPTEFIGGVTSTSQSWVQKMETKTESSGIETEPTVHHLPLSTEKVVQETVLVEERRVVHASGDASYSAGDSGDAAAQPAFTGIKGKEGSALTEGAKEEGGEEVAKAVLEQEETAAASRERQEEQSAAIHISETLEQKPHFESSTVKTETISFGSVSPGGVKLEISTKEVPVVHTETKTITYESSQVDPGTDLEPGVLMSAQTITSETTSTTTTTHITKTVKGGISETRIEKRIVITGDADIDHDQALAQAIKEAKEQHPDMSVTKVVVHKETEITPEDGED
UniProt P11021, residues 19-654: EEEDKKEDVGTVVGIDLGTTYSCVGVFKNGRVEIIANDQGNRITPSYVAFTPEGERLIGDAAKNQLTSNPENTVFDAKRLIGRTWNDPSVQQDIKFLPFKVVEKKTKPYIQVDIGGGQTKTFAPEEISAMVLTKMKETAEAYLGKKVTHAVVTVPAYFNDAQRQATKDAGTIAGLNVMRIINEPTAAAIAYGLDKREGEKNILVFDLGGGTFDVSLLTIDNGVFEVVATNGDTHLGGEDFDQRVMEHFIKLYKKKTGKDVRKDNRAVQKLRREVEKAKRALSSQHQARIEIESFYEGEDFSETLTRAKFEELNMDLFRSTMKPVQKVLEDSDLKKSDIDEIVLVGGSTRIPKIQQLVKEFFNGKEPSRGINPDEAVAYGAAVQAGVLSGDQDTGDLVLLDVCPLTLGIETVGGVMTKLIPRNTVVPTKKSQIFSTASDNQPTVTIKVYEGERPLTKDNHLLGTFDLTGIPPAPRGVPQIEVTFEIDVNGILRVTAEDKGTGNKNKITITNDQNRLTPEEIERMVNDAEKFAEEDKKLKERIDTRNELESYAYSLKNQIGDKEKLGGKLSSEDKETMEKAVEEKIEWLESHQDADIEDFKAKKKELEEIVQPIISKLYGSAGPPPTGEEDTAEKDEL
UniProt P13674, residues 18-534: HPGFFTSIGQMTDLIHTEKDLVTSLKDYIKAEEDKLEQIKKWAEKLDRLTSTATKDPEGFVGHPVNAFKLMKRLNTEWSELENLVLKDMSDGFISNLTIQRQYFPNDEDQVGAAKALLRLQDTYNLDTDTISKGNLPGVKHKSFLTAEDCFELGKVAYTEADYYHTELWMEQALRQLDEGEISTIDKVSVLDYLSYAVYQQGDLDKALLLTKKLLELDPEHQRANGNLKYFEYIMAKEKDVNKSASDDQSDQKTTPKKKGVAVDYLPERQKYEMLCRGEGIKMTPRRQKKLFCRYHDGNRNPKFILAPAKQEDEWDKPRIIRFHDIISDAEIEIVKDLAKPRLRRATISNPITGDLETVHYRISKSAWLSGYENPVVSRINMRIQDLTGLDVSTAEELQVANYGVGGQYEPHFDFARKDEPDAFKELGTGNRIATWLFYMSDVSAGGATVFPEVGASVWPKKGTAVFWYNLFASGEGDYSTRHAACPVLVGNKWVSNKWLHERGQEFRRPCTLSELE

Biological target: differentially expressed in adenocarcinoma of the lung-1 (DAL-1), endogenous (human (endogenous in lung cancer cells)) (UniProt Q9Y2J2)
Test: co-IP; endogenous co-immunoprecipitation in lung cancer cells (cell line not stated) with DAL-1, control IgG beside it; Western blot

Substance | binding
Heat shock protein A5 (HSPA5) (from UniProt P11021 19-654) | binds
P4HA1 (from UniProt P13674 18-534) | no binding
